The nature of the experiment: qHTS Assay to Find Inhibitors of Chronic Active B-Cell Receptor Signaling. Particulars: ABC-DLBCL IkBa-CBG/CBR reporter, luminescence ratio (green luciferase fused to IkBa over red control in TMD8 lymphoma cells), 4 h. In a few lines: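 TMD8 human ABC-DLBCL cells with doxycycline-inducible IκBα–green luciferase fusion and unfused red luciferase, in 0.5% FBS medium; compounds up to 46 uM, 4 h at 37C. Green/red luminescence ratio, filter-overlap corrected, fitted to concentration-response curves.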

[1] abbreviates: measured here: CBR red luminescence, cell number.
Setting [2] is: measured here: IkBa-CBG green luminescence.

Structures are written as SMILES. Some of the results follow. The main result of the screen is listed elsewhere. These columns were measured beside it and carry no call. The list favours compounds with an active or inconclusive main result. Words in brackets tell the shape of the fitted curve; partial curves, single points and poor fits give uncertain potencies.

Take `O=[N+]([O-])c1ccc(S(=O)(=O)NCC(c2cccnc2)N2CCc3ccccc32)cc1` (configuration not stated): the AC50 (commonly the concentration giving half of the maximal activity seen) under setting [1] is 9.2 µM [falling, partial curve].
Same read-out and setting: for `Cc1nc2sc(C(c3ccccc3)N3CCN(c4ccccc4F)CC3)c(O)n2n1` (configuration not stated) the value was 5.17 µM [rising, partial curve]; for `Cc1ccc(C(=O)NC(C)c2ccc3c(c2)OCO3)s1` (configuration not stated), 25.1 µM [rising, partial curve, poor fit]; for `CCCS(=O)(=O)c1c(S(=O)(=O)CCC)c2c(N)cccn2c1C(=O)c1ccc(F)cc1`, 4.11 µM [falling, full curve, poor fit].
Regarding `Cc1cccc2sc(NC(=O)c3cccc(S(=O)(=O)N4CCc5ccccc54)c3)nc12`, the AC50 under setting [1] is 5.8 µM [falling, partial curve, poor fit].
Turning to `COc1ccc(NC(=S)N2CCNC(=O)C2CC(=O)Nc2ccc(C)cc2)cc1` (configuration not stated), the AC50 under setting [1] is 4.11 µM [rising, full curve, poor fit].
Regarding `CCN(CC)S(=O)(=O)c1ccc2[nH]cc(C(=O)NCCCN3CCCCC3C)c(=O)c2c1` (configuration not stated), the half-maximal activity concentration (AC50) under setting [1] was 29.1 µM [rising, single point] and the AC50 under setting [2] was 32.6 µM [falling, partial curve, poor fit].
As for `CNC(=O)COC(=O)c1ccc(NS(=O)(=O)c2ccc3c(c2)OCCO3)cc1`, the AC50 under setting [1] is 11.2 µM [rising, partial curve, poor fit].
On the same count and under the same terms, with `C/C(=N\NC(=O)c1c[nH]c2ccccc12)c1ccco1` the figure was 25.9 µM [falling, single point]; with `Cc1ccc(SC(C)c2nc(-c3ccccc3)no2)cc1` (configuration not stated), 20.6 µM [rising, single point].
Still for that read-out and setting: for `O=c1[nH]cnc2c1c(-c1ccccc1)cn2-c1ccccc1` the value was 2.24 µM [falling, partial curve, poor fit]; for `Cc1cccc(NC(=O)c2cc(S(=O)(=O)N3CCc4ccccc43)cn2C)c1C`, 35.5 µM [rising, single point].
On the same count and under the same terms, with `Cc1ccc(CCNC(=O)c2ccc3nc4ccc(Cl)cc4c(=O)n3c2)cc1` the figure was 0.501 µM [falling, partial curve, poor fit]; with `COc1ccc(C2C(C(C)=O)=C(O)C(=O)N2c2nccs2)cc1OC` (configuration not stated), 29.1 µM [falling, single point].
As to `CC(=O)c1c(C)[nH]c(C(=O)OCC(=O)NNC(=O)c2ccc([N+](=O)[O-])cc2)c1C`, the AC50 under setting [1] was 4.11 µM [rising, full curve, poor fit].
On the same count and under the same terms, for `O=C(Nc1ccccc1Cl)Nc1cccc2cccnc12` the value was 12.6 µM [falling, partial curve, poor fit].
For the molecule `O=C(COC(=O)c1ccccc1Br)Nc1ccccc1F`, the AC50 under setting [1] was 8.91 µM [falling, partial curve].
On the same count and under the same terms, for `Cc1csc(NC(=O)c2cc(-c3ccccc3)nc3ccccc23)n1` the value was 13 µM [falling, partial curve, poor fit]; for `COc1cccc(N2CCN(c3ncnc4c3cnn4-c3ccc(C)cc3C)CC2)c1`, 7.94 µM [falling, partial curve, poor fit]; for `CCN1C(=NCc2cccc(Cl)c2)N[C@@H](c2cccc(F)c2)C(C(=O)OC)=C1C`, 35.5 µM [falling, single point].
For `COc1ccc(-c2nnc(SCC(=O)c3[nH]c(C)c(C(C)=O)c3C)o2)cc1`, under setting [1], the AC50 is 20.6 µM [rising, partial curve, poor fit].
On the same count and under the same terms, for `COc1cc(Cn2nnc3ccccc32)cc(Br)c1O` the value was 17.8 µM [rising, partial curve, poor fit]; for `C/C=C/C(=O)N1CC2(CC(c3cccc(NC(=O)COc4ccc(Cl)cc4)c3)=NO2)C[C@@H]1C(N)=O` (some centres not stated), 6.31 µM [falling, full curve]; for `COc1ccc(-c2cn3c(C)c(C(=O)NC(C)(C)C)sc3n2)cc1`, 17.8 µM [falling, single point].
The same measure, in the same setting: with `O=C(CNCc1ccccn1)N1CCc2ccccc2C1` the figure was 5.01 µM [rising, single point]; with `O=C(NCCOc1nc(N2CCCCC2)nc(N2CCOCC2)n1)Nc1ccccc1`, 0.0366 µM [rising, full curve, poor fit]; with `O=C(/C=C/c1ccccc1Cl)NNC(=O)c1cccs1`, 10 µM [falling, partial curve].
Turning to `O=C1/C(=C/N(C(=O)c2ccco2)c2ccc(Cl)cc2)Sc2ccccc21`, the AC50 under setting [1] is 14.6 µM [falling, partial curve].
Still for that read-out and setting: with `Nc1cc(CN2C(=O)c3ccccc3C2=O)cc(Cl)c1O` the figure was 29.1 µM [falling, single point]; with `O=C(Cc1ccccc1)NCCCN1CCN(CCCNC(=O)Cc2ccccc2)CC1`, 23.1 µM [rising, single point]; with `CC(C)C(C(=O)NCc1ccco1)N(C(=O)CNS(=O)(=O)c1ccc(Cl)cc1)C1CCCC1` (configuration not stated), 18.4 µM [falling, partial curve, poor fit].
Same read-out and setting: for `Cc1nnc2sc(SCC(=O)Nc3ccc(Cl)cc3)nn2c1=O` the value was 35.5 µM [falling, single point]; for `N/C(=N\N=C\c1ccc2c(c1)OCO2)c1nonc1N`, 10.3 µM [falling, partial curve, poor fit]; for `O=C1C2CCCCC2C(=O)N1c1ccc(NC2CCCCC2)c([N+](=O)[O-])c1` (configuration not stated), 14.6 µM [rising, partial curve, poor fit].
For `CCOC(=O)[C@H]1[C@H]2COc3ccccc3[C@@H]2N2C(=O)c3cc(Br)ccc3NC(=O)[C@@]12C`, the AC50 was 32.6 µM [falling, single point] under setting [1] and 20.6 µM [rising, partial curve, poor fit] under setting [2].
`O=C(NCc1ccco1)/C(=C/c1cccc(C(F)(F)F)c1)c1nc2ccccc2[nH]1`: under setting [2], the AC50 is 23.1 µM [rising, partial curve, poor fit].
For `O=C(O)c1cccc(N2CCCC2=O)c1`, the AC50 under setting [1] was 1.58 µM [rising, full curve, poor fit].
In the case of `O=c1c2ccccc2ncn1/N=C/c1ccccc1`, the AC50 under setting [1] is 10 µM [falling, partial curve].
The same measure, in the same setting: with `O=C(c1ccco1)N1CCN(C(=O)c2cc3cc([N+](=O)[O-])ccc3oc2=O)CC1` the figure was 14.1 µM [rising, single point]; with `NS(=O)(=O)c1ccc(N/N=C/C=C/c2ccccc2[N+](=O)[O-])cc1`, 3.55 µM [falling, partial curve, poor fit].
On the same count and under the same terms, for `COc1ccc(CC(=O)NNC(=O)c2cccs2)cc1OC` the value was 14.1 µM [rising, partial curve, poor fit].
The same measure, in the same setting: for `Cc1ccc(NC(=O)C(C)OC(=O)Cc2c[nH]c3ccccc23)cc1` (configuration not stated) the value was 23.1 µM [falling, partial curve]; for `CCN(CC(=O)Nc1c(F)cccc1F)C(=O)c1ccc(C(F)(F)F)cc1`, 0.501 µM [falling, full curve, poor fit]; for `COc1ccc(NC(=O)c2sc3nc(N4CCOCC4)c4c(c3c2N)CC(C)(C)OC4)cc1`, 5.62 µM [rising, partial curve, poor fit].
Take `O=C1/C(=C/c2cccc(Br)c2)SC(=S)N1/N=C/c1cc([N+](=O)[O-])ccc1O`: the AC50 under setting [1] was 6.31 µM [falling, full curve, poor fit].
Regarding `C=CC[C@@H](CC(=O)NCCO)C(=O)N[C@@H](COC(=O)[C@@H](CC=C)CC(=O)OC(C)(C)C)Cc1c[nH]c2ccccc12`, the AC50 under setting [1] was 0.13 µM [rising, full curve, poor fit].
For `CN(C(=S)NC(=O)C12CC3CC(CC(C3)C1)C2)c1ccc(O)cc1`, the concentration at half-maximal activity (AC50) under setting [1] is 29.1 µM [rising, single point] and the half-maximal activity concentration (AC50) under setting [2] was 32.6 µM [falling, partial curve, poor fit].
Regarding `O=C(O)c1cccnc1SCc1cn2cc(Cl)ccc2n1`, the AC50 under setting [1] is 3.55 µM [falling, partial curve, poor fit].
Turning to `Cc1ccc(S(=O)(=O)CC(=O)c2ccc([N+](=O)[O-])cc2)cc1`, under setting [1], the AC50 is 0.1 µM [rising, full curve, poor fit].
Regarding `O=C(O)c1cccc(NCc2ccncc2)c1`, the concentration at half-maximal activity (AC50) under setting [1] was 5.8 µM [rising, partial curve, poor fit].
On to `O=C(c1cc2cc(Cl)ccc2[nH]1)N1CCN(C(=O)c2ccco2)CC1`, for which the AC50 under setting [1] was 14.1 µM [falling, partial curve, poor fit].
Consider `Cc1nnnn1/C(=C\c1ccccc1)C(=O)OCC(=O)Nc1ccc(Cl)cc1F`, for which, under setting [1], the half-maximal activity concentration (AC50) is 4.61 µM [falling, full curve, poor fit].
Regarding `CCSc1nnc2c(n1)[nH]c1c(C)cccc12`, the AC50 under setting [1] is 3.16 µM [falling, partial curve, poor fit].
On the same count and under the same terms, with `O=C(Nc1ccccc1)c1cc([N+](=O)[O-])ccc1NC1CCCCC1` the figure was 29.1 µM [rising, single point]; with `Cc1ccc(-c2cc(-c3ccc(F)cc3)nc(N)c2C#N)o1`, 29.1 µM [falling, single point]; with `Cc1ccc(C2C(=O)N(C3CCCC3)CC(=O)N2C2CCCCC2)cc1` (configuration not stated), 0.00731 µM [falling, full curve, poor fit].
The same measure, in the same setting: for `Cc1ccc(S(=O)(=O)N2CCN(C(=O)COC(=O)CCOc3ccc(C(C)(C)C)cc3)CC2)cc1` the value was 32.6 µM [falling, partial curve, poor fit].
On to `CCC(=O)c1ccc(OCC(=O)Nc2ccccc2N2CCCCC2)cc1`, for which the AC50 under setting [1] was 0.708 µM [falling, full curve, poor fit].
The same measure, in the same setting: with `CCOC(=O)[C@@H]1[C@H]2COc3ccc(Br)cc3[C@@H]2N2C(=O)N(c3ccc(C(F)(F)F)cc3)C(=O)[C@@]12C` the figure was 4.47 µM [falling, partial curve].
